PubChem BioAssay AID743121, NCATS – 2013

- Purpose: 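Knock-downs that sensitise breast cancer cells to camptothecin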 (primary screen)
- System: MDA-MB-231 cells, a human breast cancer line
- Knock-down reagent: single siRNA against human genes, 20 nM siRNA (0.8 pmol per well)
- Timing: 120 h (drug added 48 h after transfection, read 72 h later)
- Conditions: camptothecin 20 nM (about EC30) for 72 h; vehicle 0.1% DMSO in parallel plates
- Read-out: 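Cell viability by ATP luminescence (CellTiter-Glo) as % of non-targeting siRNA wells, and the log2 ratio of viability without drug over viability with camptothecin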
- Reading the numbers: log2 vehicle/camptothecin viability: higher = stronger sensitisation to camptothecin
- Rule for the call: 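Active genes have an RSA gene-level p-value below 0.001, computed from the ratios of their separate siRNAs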
Here is an unselected part of about 26,000 reagents tested. 167 of all reagents (0.63%) count as active. 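Calls are per gene from RSA p-values that are not deposited; an individual active-marked siRNA can sensitise only weakly.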 Entries without a mark were called inactive. Further read-outs or replicates are left out here.

BPIFB4 (BPI fold containing family B member 4) [SID164575631]
- log2 vehicle/camptothecin viability: -0.0375

BPIFB4 (BPI fold containing family B member 4) [SID164575632]
- log2 vehicle/camptothecin viability: -0.169

BPIFB4 (BPI fold containing family B member 4) [SID164575634]
- log2 vehicle/camptothecin viability: 0.00727

BPIFB4 (BPI fold containing family B member 4) [SID164575637]
- log2 vehicle/camptothecin viability: -0.121

DNAH9 (dynein axonemal heavy chain 9) [SID164361825]
- log2 vehicle/camptothecin viability: -0.497

DNAH9 (dynein axonemal heavy chain 9) [SID164361827]
- log2 vehicle/camptothecin viability: -0.169

DNAH9 (dynein axonemal heavy chain 9) [SID164361834]
- log2 vehicle/camptothecin viability: -0.0578

GPR22 (G protein-coupled receptor 22) [SID164367351]
- log2 vehicle/camptothecin viability: -0.703

GPR22 (G protein-coupled receptor 22) [SID164367352]
- log2 vehicle/camptothecin viability: -0.0988

GPR22 (G protein-coupled receptor 22) [SID164367354]
- log2 vehicle/camptothecin viability: 0.185

GPR22 (G protein-coupled receptor 22) [SID164367356]
- log2 vehicle/camptothecin viability: -0.0532

PKP1 (plakophilin 1) [SID164380972]
- log2 vehicle/camptothecin viability: -0.00335

PKP1 (plakophilin 1) [SID164380974]
- log2 vehicle/camptothecin viability: -0.349

PKP1 (plakophilin 1) [SID164380975]
- log2 vehicle/camptothecin viability: -0.243

PKP1 (plakophilin 1) [SID164380976]
- log2 vehicle/camptothecin viability: -0.559

MAML2 (mastermind like transcriptional coactivator 2) [SID164544921]
- log2 vehicle/camptothecin viability: -0.244

MAML2 (mastermind like transcriptional coactivator 2) [SID164544923]
- log2 vehicle/camptothecin viability: 0.0576

MAML2 (mastermind like transcriptional coactivator 2) [SID164544925]
- log2 vehicle/camptothecin viability: -0.816

TG (thyroglobulin) [SID164391583]
- log2 vehicle/camptothecin viability: -0.296

TG (thyroglobulin) [SID164391584]
- log2 vehicle/camptothecin viability: -0.0409

TG (thyroglobulin) [SID164391587]
- log2 vehicle/camptothecin viability: -0.336

TG (thyroglobulin) [SID164391588]
- log2 vehicle/camptothecin viability: 0.36

TESMIN (testis expressed metallothionein like protein) [SID164405001]
- log2 vehicle/camptothecin viability: 0.23

TESMIN (testis expressed metallothionein like protein) [SID164405002]
- log2 vehicle/camptothecin viability: 0.788

TESMIN (testis expressed metallothionein like protein) [SID164405004]
- log2 vehicle/camptothecin viability: 0.158

Targets above whose gene name starts with G or g (4):
GPR22 (G protein-coupled receptor 22) [SID164367351]
- log2 vehicle/camptothecin viability: -0.703

GPR22 (G protein-coupled receptor 22) [SID164367352]
- log2 vehicle/camptothecin viability: -0.0988

GPR22 (G protein-coupled receptor 22) [SID164367354]
- log2 vehicle/camptothecin viability: 0.185

GPR22 (G protein-coupled receptor 22) [SID164367356]
- log2 vehicle/camptothecin viability: -0.0532
